Assay results reported in PubChem BioAssay AID540275 (National Center for Advancing Translational Sciences (NCATS), 2011).
In all, about 320,000 compounds went through this assay and about 620 (0.19%) were called active. The inconclusive results got no clear call from the source; some entries with a clear call stand among them for comparison. No stated cut-off is given here; in the data, active means activation above about 80%; inconclusive means between about 30% and that limit; inactive means weaker than that.

Chains of the proteins cited; added tags and fusions are not shown.
UniProt Q8NER1, whole entry, looked up: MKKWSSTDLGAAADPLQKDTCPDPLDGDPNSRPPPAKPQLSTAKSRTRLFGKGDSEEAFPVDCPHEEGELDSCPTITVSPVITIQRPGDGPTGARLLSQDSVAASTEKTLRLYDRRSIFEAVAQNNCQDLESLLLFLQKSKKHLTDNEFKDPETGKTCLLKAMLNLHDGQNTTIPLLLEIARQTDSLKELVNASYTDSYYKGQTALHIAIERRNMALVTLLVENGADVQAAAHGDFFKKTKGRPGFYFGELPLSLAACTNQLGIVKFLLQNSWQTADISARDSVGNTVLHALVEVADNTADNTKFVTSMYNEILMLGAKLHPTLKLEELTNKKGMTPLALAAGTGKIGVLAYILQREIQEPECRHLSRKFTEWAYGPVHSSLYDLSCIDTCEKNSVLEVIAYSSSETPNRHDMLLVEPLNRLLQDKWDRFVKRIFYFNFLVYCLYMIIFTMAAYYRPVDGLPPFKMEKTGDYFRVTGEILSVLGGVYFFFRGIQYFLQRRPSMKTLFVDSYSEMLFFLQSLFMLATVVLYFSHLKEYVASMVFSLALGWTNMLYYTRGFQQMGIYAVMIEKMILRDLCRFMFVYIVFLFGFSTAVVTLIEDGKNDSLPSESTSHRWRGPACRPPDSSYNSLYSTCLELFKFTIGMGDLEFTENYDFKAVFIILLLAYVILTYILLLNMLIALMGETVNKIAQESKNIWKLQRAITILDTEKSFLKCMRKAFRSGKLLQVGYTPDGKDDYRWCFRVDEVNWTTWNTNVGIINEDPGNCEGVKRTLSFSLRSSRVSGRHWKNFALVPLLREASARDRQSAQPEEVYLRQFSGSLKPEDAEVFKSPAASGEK

biological target: Transient receptor potential cation channel subfamily V member 1 (Homo sapiens) (UniProt Q8NER1); experiment: HTS Assay for Compounds that Act as Agonists of the Vanilloid Receptor 1; conditions: TRPV1-expressing cells, Fluo-8 calcium influx, agonist mode; at 8.33 µM, stronger effect = higher value; further: 0% is about no effect
Outline: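 Fluo-8 calcium influx in TRPV1-expressing cells, kinetic read (ex 480/em 520 nm). Compound added and read 3 min for agonist activity, followed by capsaicin at EC20 final and 2 min further read for enhancement.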

Row | SMILES | activation
1 | Cc1ccc(CSCC(=O)Nc2cc(S(=O)(=O)N3CCOCC3)ccc2OC(C)C)cc1 | inconclusive: 45.7%
2 | O=C1CN(C(=O)c2ccccc2[N+](=O)[O-])C(c2ccccc2)c2cc(Br)ccc2N1 (configuration not stated) | inconclusive: 44.1%
3 | CC(C)CNC(=S)Nc1ccc(Oc2ccccc2)cc1 | inactive: 23.3%
4 | Cc1cc(OCCSc2nnc(-c3cccs3)n2C)ccc1Cl | inactive: -1.52%
5 | CC(Oc1cccc(Cl)c1)C(=O)Nc1ccccc1C(=O)N1CCCCC1 (configuration not stated) | inconclusive: 51.1%
6 | CCOP(=O)(OCC)c1nc(-c2cccc3ccccc23)oc1N1CCCCC1 | inconclusive: 68.3%
7 | COc1ccc(C(NC(=O)c2c(F)c(F)c(F)c(F)c2F)c2ccccc2)cc1 (configuration not stated) | inconclusive: 41.6%
8 | CC1(C)C(=O)Nc2ccccc2N1C(=O)c1ccc([N+](=O)[O-])cc1 | inconclusive: 44.1%
9 | Nc1nnc(SCCCOc2ccc(F)cc2)s1 | inconclusive: 59.5%
10 | O=C(Nc1ccc(Br)cc1)c1ccc2c(c1)OCO2 | inconclusive: 78.1%
11 | COc1cc(NS(=O)(=O)c2ccc(N/C=C\C(=O)c3ccc(F)cc3)cc2)nc(OC)n1 | inactive: 0.29%
12 | Cc1ccc(Nc2nc(CSc3nnc(-c4cccnc4)n3-c3ccccc3C)cs2)cc1 | inconclusive: 41.8%
13 | COc1ccc(NC(=O)c2ccco2)cc1NC(=O)c1ccccc1F | inconclusive: 77.5%
14 | COc1cc(/C=N\NC(=O)c2nonc2N)c(OC)cc1Br | inconclusive: 40.1%
15 | CCc1cc(C(c2ccccc2OC)N2CCOCC2)c(NC(=O)c2ccccc2)s1 (configuration not stated) | inconclusive: 35.9%
16 | CC(=O)N1CCN(c2ccccc2NC(=O)c2cc3ccccc3o2)CC1 | inconclusive: 42.2%
17 | Nc1ccc(C#Cc2ccccc2)cc1 | inactive: 2.14%
18 | Cc1cc(C(=O)Nc2ccncc2)ccc1[N+](=O)[O-] | inconclusive: 67.6%
19 | O=C(Nc1ccc(NC(=O)c2cccs2)cc1)c1ccccc1 | inactive: 10.1%
20 | CC1CCN(C(=O)COC(=O)c2cc(Cl)c3c(c2)OCO3)CC1 | inconclusive: 38.2%
21 | COC(=O)c1ccc(NC(=O)Cn2nnc(-c3cccs3)n2)cc1 | inactive: 0.525%
22 | C=CCNC(=O)c1ccc(Sc2ccc(C)cc2)c([N+](=O)[O-])c1 | inconclusive: 40.6%
23 | CC(NC(=O)c1cc2cc(F)ccc2[nH]1)c1ccccc1 (configuration not stated) | inconclusive: 44.9%

Row | SMILES | activation
24 | COc1cccc(CC(=O)Nc2cccc3ccccc23)c1 | inconclusive: 45.8%
25 | CCCC(=O)N1CCN(c2ccc(NC(=O)c3cc4ccccc4o3)cc2Cl)CC1 | inactive: 0.526%
26 | COc1ccc(NC(=O)/C=C/c2ccc(Br)o2)cn1 | inconclusive: 52%
27 | Cc1ccc(N(CCC(=O)N2CCOCC2)S(=O)(=O)c2ccccc2)cc1 | inactive: 6.66%
28 | O=S(=O)(c1ccc(F)c(F)c1F)N1CCN(C(=S)NCc2ccccc2)CC1 | inconclusive: 43.8%
29 | O=C(NCc1ccc(F)cc1)c1cc2c(s1)CS(=O)(=O)C2 | inconclusive: 57.1%
30 | CC(=O)c1ccc(N2CCN(C(=O)Nc3ccc(F)cc3)CC2)cc1 | inconclusive: 67.9%
31 | CCCOc1ccc(CSc2nc3ccccc3[nH]2)cc1 | inconclusive: 33.5%
32 | CCOc1ccc(Oc2ccc(NS(=O)(=O)c3cc(C(=O)O)ccc3Cl)cc2)cc1 | inactive: -1%
33 | CNC(=O)c1ccc(-c2cc(C(F)(F)F)nn2C)s1 | inconclusive: 45.7%
34 | O=C(O)C1=C[C@H](c2coc3ccccc3c2=O)C[C@H](OCCCCO)O1 | inactive: -0.36%
35 | C(=C\c1ccco1)/c1nc2ccccc2[nH]1 | inconclusive: 42.6%
36 | Cc1ccc(-c2ccc(/C=C3\C(=O)ON=C3c3ccccc3)o2)c([N+](=O)[O-])c1 | inactive: 2.6%
37 | COc1ccc(NC(=O)Nc2ccc(C)cc2OC(F)F)cc1OC | inconclusive: 53.7%
38 | O=C(CN1C(=O)c2ccc(Br)cc2C1=O)NCC1CCCO1 (configuration not stated) | inactive: -10.5%
39 | CCOc1ncccc1C(=O)N1CCN(c2cc(Cl)ccc2C)CC1 | inconclusive: 34.4%
40 | COc1ccc(CC(=O)NNC(=O)COc2ccc(Br)cc2C)cc1OC | inconclusive: 57%
41 | CCCCc1ccc(NC(=S)N2CCC(O)CC2)cc1 | active: 85.2%
42 | Cc1ccccc1CC1(CO)CCCN(C(=O)CCC(=O)c2ccccc2)C1 (configuration not stated) | inconclusive: 54.2%
43 | CCc1ccc(-c2cc(C)no2)cc1S(=O)(=O)N1CCCN(Cc2ccc(F)cc2)C1 | inconclusive: 37.2%
44 | Cc1c(NC(=O)/C=C/c2ccc(S(=O)(=O)N3CCOCC3)cc2)c(=O)n(-c2ccccc2)n1C | inactive: -3.82%
45 | O=C(CC12CC3CC(CC(C3)C1)C2)N/N=C\c1ccc[nH]1 | inconclusive: 58.5%
46 | C(=N\N1CCN(C2c3ccccc3-c3ccccc32)CC1)/c1ccncc1 | inconclusive: 32.4%

Row | SMILES | activation
47 | CCN1C(=O)[C@@H]2C(C(=O)c3cnccn3)=NN[C@@H]2C1=O | inactive: -2.07%
48 | Cc1ccc(NC(=O)N2CCC(C(=O)c3ccc(F)cc3)CC2)cc1 | inconclusive: 60.8%
49 | O=C(C/C=N\OCc1ccc([N+](=O)[O-])cc1)Nc1ccc(Cl)cc1 | inconclusive: 33%
50 | CCCCCCCN(C(=O)CCl)c1cccc(C)c1 | inactive: 16.1%
51 | COc1cc(C2CC(=O)Oc3c(C(CCN4CCN(c5ccccc5)CC4)c4ccc(N(C)C)cc4)c(OC)cc(OC)c32)cc(OC)c1OC (configuration not stated) | inactive: 1.21%
52 | Nc1cc(-c2ccc(Br)cc2)[nH]n1 | inactive: -6.47%
53 | C=CCn1c(=O)c(C(C)=O)cn(N(C)c2ncc(C(F)(F)F)cc2Cl)c1=O | inactive: 7.46%
54 | Cc1nc(CNS(=O)(=O)c2cccc(F)c2)cs1 | inactive: 0.746%
55 | COC(=O)C1=C(O)C(C(=O)OC)C(c2ccc(C)cc2)C(C#N)(C#N)C1c1ccc(C)cc1 (configuration not stated) | inconclusive: 56.2%
56 | CC(C)c1ccc(OCC(=O)Nc2ccncc2)cc1 | active: 94.8%
57 | COc1ccc(C(=O)NCCS(=O)(=O)N2CCc3ccccc3C2)cc1 | inactive: 5.23%
58 | Cc1cc(-c2n[nH]c(=S)n2/N=C/c2ccc(C)o2)n[nH]1 | inactive: 1.09%
59 | N#C/C(=C\c1cn(Cc2ccccc2)c2ccccc12)C(=O)NCc1ccco1 | inconclusive: 35.4%
60 | O=c1ccc2cc3c4c(c2o1)CCCN4CCC3 | inactive: 16.5%
61 | O=C(CCCn1c(=S)[nH]c2ccc(Br)cc2c1=O)NCc1ccccn1 | inactive: -0.409%
62 | CC(=O)Nc1ccc(OCC(O)Cn2cccn2)cc1 (configuration not stated) | inactive: 1.06%
63 | COCC(C)NC(=O)/C(=C/c1ccccc1)c1ccccc1 (configuration not stated) | inconclusive: 36.9%
64 | Cn1cccc1CC(=O)NNC(=S)Nc1ccc(Cl)cc1Cl | inactive: 2.95%
65 | CCOC(=O)NN1C(=O)c2ccccc2NC1c1ccc(OC)cc1 (configuration not stated) | inactive: -0.467%
66 | CC(C)c1ccc(OCC(=O)NCc2ccco2)cc1 | inconclusive: 55.1%
67 | COC(=O)C1=C(C(=O)OC)[C@@H]2N(C)c3ccccc3[C@@]23C[C@@H](C(=O)OC)N(C(=O)C2CCC2)C3=N1 | inconclusive: 40.1%
68 | CCOc1ccc(C(=O)N2CCC3(CC2)NCCc2[nH]cnc23)cc1 | inactive: -0.49%
69 | Cc1ccccc1NC(=O)/C=C/c1cccs1 | inconclusive: 33.3%

In the list so far, these have a Cl atom:
Row | SMILES | activation
4 | Cc1cc(OCCSc2nnc(-c3cccs3)n2C)ccc1Cl | inactive: -1.52%
5 | CC(Oc1cccc(Cl)c1)C(=O)Nc1ccccc1C(=O)N1CCCCC1 (configuration not stated) | inconclusive: 51.1%
20 | CC1CCN(C(=O)COC(=O)c2cc(Cl)c3c(c2)OCO3)CC1 | inconclusive: 38.2%
25 | CCCC(=O)N1CCN(c2ccc(NC(=O)c3cc4ccccc4o3)cc2Cl)CC1 | inactive: 0.526%
32 | CCOc1ccc(Oc2ccc(NS(=O)(=O)c3cc(C(=O)O)ccc3Cl)cc2)cc1 | inactive: -1%
39 | CCOc1ncccc1C(=O)N1CCN(c2cc(Cl)ccc2C)CC1 | inconclusive: 34.4%
49 | O=C(C/C=N\OCc1ccc([N+](=O)[O-])cc1)Nc1ccc(Cl)cc1 | inconclusive: 33%
50 | CCCCCCCN(C(=O)CCl)c1cccc(C)c1 | inactive: 16.1%
53 | C=CCn1c(=O)c(C(C)=O)cn(N(C)c2ncc(C(F)(F)F)cc2Cl)c1=O | inactive: 7.46%
64 | Cn1cccc1CC(=O)NNC(=S)Nc1ccc(Cl)cc1Cl | inactive: 2.95%

(continued)

Row | SMILES | activation
70 | O=C(c1ccccc1)c1cc(F)c(N2CCOCC2)cc1Cl | inconclusive: 64.6%
71 | O=C(Nc1ccc2c(c1)OCCO2)c1ccc(Br)cc1 | inconclusive: 50.4%
72 | NNC(=O)COc1ccc2oc3c(c2c1)CCCC3 | inconclusive: 36.5%
73 | Brc1ccc2nc(-c3cccs3)c(NCC3CCCO3)n2c1 (configuration not stated) | inconclusive: 41.2%
74 | CCn1nc(C)c(CNC(=O)c2cc(COc3ccc(F)cc3Cl)on2)c1C | inactive: 23.9%
75 | Cc1cc2c(cc1C)-c1c(ssc1=Nc1ccc(S(N)(=O)=O)cc1)C(C)(C)N2 | inconclusive: 57.4%
76 | CC(C)n1cnc2c(NCc3ccccc3)nc(NCc3ccccc3)nc21 | inconclusive: 44.7%
77 | c1ccc(-c2cc(-c3ccccc3)n3ncnc3n2)cc1 | inconclusive: 55.4%
78 | Cc1ccc(NC(=O)C2COc3ccccc3O2)nc1 (configuration not stated) | inconclusive: 35.3%
79 | O=C(CCCOc1ccc(Cl)cc1Cl)Nc1cccnc1 | inconclusive: 54%
80 | CN(C)c1c(F)cc(C(=O)NCc2ccccc2)cc1F | inconclusive: 33.9%
81 | Cc1ccc(-c2csc(N(CCCN3CCOCC3)C(=O)c3ccco3)n2)cc1 | inconclusive: 38%
82 | Cc1ccc(C(NC(=O)N2CCOCC2)C(Cl)(Cl)Cl)cc1F (configuration not stated) | inconclusive: 55%
83 | COc1cc(CNc2ncc(-c3ccc(Br)cc3)n2C)cc(OC)c1O | inactive: -3.82%
84 | O=C1C=C(Nc2ccccc2C(=O)O)c2ccccc2C1=O | inactive: 1.24%
85 | S=C(NCc1ccccc1)N1CCc2ccccc2C1 | inconclusive: 48.5%
86 | O=C1COc2ccc(S(=O)(=O)Nc3ccc(F)cc3)cc2N1 | inactive: 20.7%
87 | CC(=O)N/C(=N/c1nc(C)cc(C)n1)Nc1ccc(C)cc1C | inconclusive: 44.3%
88 | CCOc1ccc(CN(C)CC(=O)Nc2ccc3c(c2)CCC3)cc1OC | inconclusive: 45.7%
89 | Nc1ccc(C(=O)Nc2nc3ccccc3s2)cc1 | inconclusive: 58.6%
90 | O=C(Nc1cccnc1)Nc1ccc(F)c(Cl)c1 | inconclusive: 36.5%
91 | Nc1cccc2c1C(=O)N(CC(=O)NC13CC4CC(CC(C4)C1)C3)C2=O | inactive: 2.48%
92 | CCOC(=O)C1(Cc2cccc(Cl)c2)CCCN(C(=O)c2cc(CC)on2)C1 (configuration not stated) | inconclusive: 64.7%

In the list so far, these have a CF3 group.
Row | SMILES | activation
33 | CNC(=O)c1ccc(-c2cc(C(F)(F)F)nn2C)s1 | inconclusive: 45.7%
53 | C=CCn1c(=O)c(C(C)=O)cn(N(C)c2ncc(C(F)(F)F)cc2Cl)c1=O | inactive: 7.46%
